In paper PMC6331412, “Protein Disulfide Isomerase Modulates the Activation of Thyroid Hormone Receptors” (Frontiers in Endocrinology, 2018):

Experiments:
[1] = target: T1, hTRβΔAB (amino acids 102–461), recombinant (human) (UniProt P10828); assay: dynamic light scattering; ZetaSizer NanoZS90, ~1 mg/mL, 15°C; proteins alone and in complex; both purified
T1 sequence: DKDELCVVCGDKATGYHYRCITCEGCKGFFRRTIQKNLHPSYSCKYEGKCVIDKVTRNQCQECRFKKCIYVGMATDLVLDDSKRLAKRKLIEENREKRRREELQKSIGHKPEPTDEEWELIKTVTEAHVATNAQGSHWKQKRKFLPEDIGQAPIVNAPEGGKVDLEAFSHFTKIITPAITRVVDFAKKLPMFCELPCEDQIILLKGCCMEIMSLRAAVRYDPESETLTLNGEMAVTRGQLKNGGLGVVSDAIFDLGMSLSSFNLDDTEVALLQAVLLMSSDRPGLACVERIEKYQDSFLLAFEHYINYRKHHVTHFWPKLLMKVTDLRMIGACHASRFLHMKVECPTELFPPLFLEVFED

[2] = target: T1, hTRβΔAB (amino acids 102–461), recombinant (human); assay: SEC; analytical gel filtration, Superdex 200 HR 10/300, buffer A or B with 150 mM NaCl and 2 mM DTT, 0.5 mL/min; hydrodynamic radii from calibration standards; proteins alone and mixed; both purified
[3] = target: T2, hTRβΔAB (amino acids 102–461) labelled with FITC (human) (UniProt P10828); assay: condition: only PDIA1 pre-incubated with 0.5 mM H2O2 (Kd >>102 ± 264 μM); fluorescence polarisation; oxidised PDIA1 (pre-incubated with 0.5 mM H2O2 for 30 min) titrated from 0.012 to 25 μM into 50 nM TR-FITC; 20 mM sodium phosphate pH 7.4, 150 mM NaCl, 5 mM MgCl2, no DTT in the buffer; with and without T3 by the methods, not given for the values; both purified
T2 sequence (chain, labelled with fluorescein isothiocyanate (FITC), site not stated): T1 sequence

Substance: hPDIA1 full length, recombinant (human) (enzyme)
- binding [1]: binds
- binding [2]: binds
- binding [3]: no binding

No constants are given. Whether binding was seen depends on the method and setting. For part of these data: Binding can be weak; no strength is given.
